According to PMC9279676, “ERK2 MAP kinase regulates SUFU binding by multisite phosphorylation of GLI1” (Life Science Alliance, 2022):
Results are given in words; binding and its absence hold for the method and conditions named. Binding seen in cells or lysates may run through a third protein. Some results given as binding are weak or reduced against the parent protein; the word gives no strength. Tags and fused reporters may be left off the sequences shown.

T1: GST-GLI1^SSSS, phosphorylated by ERK2 (human) (UniProt P08151)
T1 sequence (chain, phosphorylated by ERK2; intact SP sites S102, S116, S130, S201): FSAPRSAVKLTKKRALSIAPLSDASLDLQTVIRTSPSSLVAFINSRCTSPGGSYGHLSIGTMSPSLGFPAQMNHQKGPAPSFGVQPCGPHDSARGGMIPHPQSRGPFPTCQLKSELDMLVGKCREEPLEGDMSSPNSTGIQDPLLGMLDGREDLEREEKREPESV

T2: GST-GLI1^S116,S130, phosphorylated by ERK2 (human) (UniProt P08151)
T2 sequence (chain, phosphorylated by ERK2; intact SP sites S116, S130): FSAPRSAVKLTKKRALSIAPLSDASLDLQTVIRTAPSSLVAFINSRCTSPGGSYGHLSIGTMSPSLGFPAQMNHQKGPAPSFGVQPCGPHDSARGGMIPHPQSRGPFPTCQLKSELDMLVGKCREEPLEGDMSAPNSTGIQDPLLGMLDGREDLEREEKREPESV

T3: GST-GLI1^S102,S130 (GST-GLI1_(68-232), only S102 and S130 intact), mock treated (human) (UniProt P08151)
T3 sequence: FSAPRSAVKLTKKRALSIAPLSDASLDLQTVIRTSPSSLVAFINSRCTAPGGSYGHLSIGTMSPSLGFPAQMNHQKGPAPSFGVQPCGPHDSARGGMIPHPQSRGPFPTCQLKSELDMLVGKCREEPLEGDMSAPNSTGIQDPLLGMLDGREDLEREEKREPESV

T4: GST-GLI1^S102,S116 (GST-GLI1_(68-232), only S102 and S116 intact), mock treated (human) (UniProt P08151)
T4 sequence: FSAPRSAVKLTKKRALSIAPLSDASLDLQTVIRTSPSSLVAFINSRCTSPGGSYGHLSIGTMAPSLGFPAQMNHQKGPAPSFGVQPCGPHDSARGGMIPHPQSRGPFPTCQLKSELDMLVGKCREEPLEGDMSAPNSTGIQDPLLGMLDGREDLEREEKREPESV

T5: GST-GLI1^S116,S130 (GST-GLI1_(68-232), only S116 and S130 intact), mock treated (human) (UniProt P08151)
T5 sequence: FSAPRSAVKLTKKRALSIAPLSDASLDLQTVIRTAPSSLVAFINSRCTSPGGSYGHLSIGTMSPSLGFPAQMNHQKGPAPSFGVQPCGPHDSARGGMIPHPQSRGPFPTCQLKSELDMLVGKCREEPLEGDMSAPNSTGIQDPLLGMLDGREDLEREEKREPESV

T6: GST-GLI1^SSSS (GST-GLI1_(68-232) S70A S86A S146A), mock treated (human) (UniProt P08151)
T6 sequence: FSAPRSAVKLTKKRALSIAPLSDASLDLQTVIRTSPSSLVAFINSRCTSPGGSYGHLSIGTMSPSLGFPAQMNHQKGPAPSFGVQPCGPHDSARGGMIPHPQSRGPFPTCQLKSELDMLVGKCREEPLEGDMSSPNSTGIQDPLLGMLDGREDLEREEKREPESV

T7: GST-GLI1^S130 (GST-GLI1_(68-232), only S130 intact), mock treated (human) (UniProt P08151)
T7 sequence: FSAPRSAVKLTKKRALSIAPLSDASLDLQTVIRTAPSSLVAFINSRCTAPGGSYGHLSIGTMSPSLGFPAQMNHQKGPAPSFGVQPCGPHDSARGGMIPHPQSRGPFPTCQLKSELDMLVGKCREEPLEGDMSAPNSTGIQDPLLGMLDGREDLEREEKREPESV

T8: GST-SUFU (fusion of GST to full-length human SUFU) (human) (UniProt Q9UMX1)
T8 sequence: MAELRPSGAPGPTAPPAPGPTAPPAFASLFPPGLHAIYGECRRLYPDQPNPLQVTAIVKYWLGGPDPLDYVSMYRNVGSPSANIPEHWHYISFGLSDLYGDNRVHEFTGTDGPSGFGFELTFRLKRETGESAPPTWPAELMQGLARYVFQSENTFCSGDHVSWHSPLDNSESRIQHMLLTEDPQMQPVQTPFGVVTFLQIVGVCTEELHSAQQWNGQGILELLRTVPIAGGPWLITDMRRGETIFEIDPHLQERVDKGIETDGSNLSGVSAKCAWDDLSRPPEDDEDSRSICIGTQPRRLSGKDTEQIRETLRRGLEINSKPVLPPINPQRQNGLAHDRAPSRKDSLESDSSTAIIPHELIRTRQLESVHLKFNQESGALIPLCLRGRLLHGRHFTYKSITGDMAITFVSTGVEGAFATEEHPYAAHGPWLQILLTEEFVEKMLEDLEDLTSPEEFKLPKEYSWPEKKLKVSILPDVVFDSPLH


Experiments:
[1] = target: T1, GST-GLI1^SSSS, phosphorylated by ERK2 (human); test: pull-down; purified GST-GLI1_(68-232) variants (mock treated or ERK2 phosphorylated), 0 or 1.25-80 nM, on glutathione-Sepharose beads; ∼1 pmol 35S-SUFU in 200 μl; 15 min at 30°C, then 1 h at room temperature; Binding Buffer (20 mM Tris-HCl pH 7.5, 125 mM KOAc, 0.5 mM EDTA, 5 mM DTT, 0.1% Tween20, 12.5% glycerol) + 1 mg/ml BSA; bound SUFU quantified by SDS-PAGE and Phosphorimager; Kd from binding isotherms; only the target purified
[2] = target: T2, GST-GLI1^S116,S130, phosphorylated by ERK2 (human); test: as above
[3] = target: T3, GST-GLI1^S102,S130 (GST-GLI1_(68-232), only S102 and S130 intact), mock treated (human); test: as above
[4] = target: T4, GST-GLI1^S102,S116 (GST-GLI1_(68-232), only S102 and S116 intact), mock treated (human); test: as above
[5] = target: T5, GST-GLI1^S116,S130 (GST-GLI1_(68-232), only S116 and S130 intact), mock treated (human); test: as above
[6] = target: T6, GST-GLI1^SSSS (GST-GLI1_(68-232) S70A S86A S146A), mock treated (human); test: as above
[7] = target: T7, GST-GLI1^S130 (GST-GLI1_(68-232), only S130 intact), mock treated (human); test: as above
[8] = target: T8, GST-SUFU (fusion of GST to full-length human SUFU) (human); test: pull-down; purified GST-SUFU, 1.25-80 nM, captured on glutathione-Sepharose beads; ∼1 pmol 35S-GLI1 (1-232 or full length) in 200 μl; 15 min at 30°C, then 1 h at room temperature; Binding Buffer + 1 mg/ml BSA; bound GLI1 quantified by SDS-PAGE and Phosphorimager; Kd from binding isotherms; only the target purified

Row | Binder | binding [8] | also measured
1 | full-length human SUFU protein, 35S-radiolabeled (natural protein, UniProt Q9UMX1-1 1-484, looked up, [35S]-methionine label, human SUFU, full length, residues 1-484, from plasmid pGEM4Z-SUFU; also called 35S-SUFU; radiolabeled SUFU; source: in vitro transcription and translation (SP6, Promega), partially purified by ammonium sulfate precipitation) MAELRPSGAPGPTAPPAPGPTAPPAFASLFPPGLHAIYGECRRLYPDQPNPLQVTAIVKYWLGGPDPLDYVSMYRNVGSPSANIPEHWHYISFGLSDLYGDNRVHEFTGTDGPSGFGFELTFRLKRETGESAPPTWPAELMQGLARYVFQSENTFCSGDHVSWHSPLDNSESRIQHMLLTEDPQMQPVQTPFGVVTFLQIVGVCTEELHSAQQWNGQGILELLRTVPIAGGPWLITDMRRGETIFEIDPHLQERVDKGIETDGSNLSGVSAKCAWDDLSRPPEDDEDSRSICIGTQPRRLSGKDTEQIRETLRRGLEINSKPVLPPINPQRQNGLAHDRAPSRKDSLESDSSTAIIPHELIRTRQLESVHLKFNQESGALIPLCLRGRLLHGRHFTYKSITGDMAITFVSTGVEGAFATEEHPYAAHGPWLQILLTEEFVEKMLEDLEDLTSPEEFKLPKEYSWPEKKLKVSILPDVVFDSPLH |  | binding [1]: binds; binding [2]: binds; binding [3]: binds; binding [4]: binds; binding [5]: binds; binding [6]: binds; binding [7]: binds
2 | GLI1_(1-232) S116E, 35S-radiolabeled (domain or fragment, UniProt P08151-1 1-232, [35S]-methionine label) MFNSMTPPPISSYGEPCCLRPLPSQGAPSVGTEGLSGPPFCHQANLMSGPHSYGPARETNSCTEGPLFSSPRSAVKLTKKRALSISPLSDASLDLQTVIRTSPSSLVAFINSRCTEPGGSYGHLSIGTMSPSLGFPAQMNHQKGPSPSFGVQPCGPHDSARGGMIPHPQSRGPFPTCQLKSELDMLVGKCREEPLEGDMSSPNSTGIQDPLLGMLDGREDLEREEKREPESV | binds | 
3 | GLI1_(1-232) S130E, 35S-radiolabeled (domain or fragment, UniProt P08151-1 1-232, [35S]-methionine label) MFNSMTPPPISSYGEPCCLRPLPSQGAPSVGTEGLSGPPFCHQANLMSGPHSYGPARETNSCTEGPLFSSPRSAVKLTKKRALSISPLSDASLDLQTVIRTSPSSLVAFINSRCTSPGGSYGHLSIGTMEPSLGFPAQMNHQKGPSPSFGVQPCGPHDSARGGMIPHPQSRGPFPTCQLKSELDMLVGKCREEPLEGDMSSPNSTGIQDPLLGMLDGREDLEREEKREPESV | binds | 
4 | GLI1_(1-232) S116E S130E, 35S-radiolabeled (domain or fragment, UniProt P08151-1 1-232, [35S]-methionine label) MFNSMTPPPISSYGEPCCLRPLPSQGAPSVGTEGLSGPPFCHQANLMSGPHSYGPARETNSCTEGPLFSSPRSAVKLTKKRALSISPLSDASLDLQTVIRTSPSSLVAFINSRCTEPGGSYGHLSIGTMEPSLGFPAQMNHQKGPSPSFGVQPCGPHDSARGGMIPHPQSRGPFPTCQLKSELDMLVGKCREEPLEGDMSSPNSTGIQDPLLGMLDGREDLEREEKREPESV | binds | 
5 | GLI1_(1-232) R81W (tumor-derived), 35S-radiolabeled (domain or fragment, UniProt P08151-1 1-232, [35S]-methionine label) MFNSMTPPPISSYGEPCCLRPLPSQGAPSVGTEGLSGPPFCHQANLMSGPHSYGPARETNSCTEGPLFSSPRSAVKLTKKWALSISPLSDASLDLQTVIRTSPSSLVAFINSRCTSPGGSYGHLSIGTMSPSLGFPAQMNHQKGPSPSFGVQPCGPHDSARGGMIPHPQSRGPFPTCQLKSELDMLVGKCREEPLEGDMSSPNSTGIQDPLLGMLDGREDLEREEKREPESV | binds | 
6 | GLI1_(1-232) S84P (tumor-derived), 35S-radiolabeled (domain or fragment, UniProt P08151-1 1-232, [35S]-methionine label) MFNSMTPPPISSYGEPCCLRPLPSQGAPSVGTEGLSGPPFCHQANLMSGPHSYGPARETNSCTEGPLFSSPRSAVKLTKKRALPISPLSDASLDLQTVIRTSPSSLVAFINSRCTSPGGSYGHLSIGTMSPSLGFPAQMNHQKGPSPSFGVQPCGPHDSARGGMIPHPQSRGPFPTCQLKSELDMLVGKCREEPLEGDMSSPNSTGIQDPLLGMLDGREDLEREEKREPESV | binds | 
7 | GLI1_(1-232) L88M (tumor-derived), 35S-radiolabeled (domain or fragment, UniProt P08151-1 1-232, [35S]-methionine label) MFNSMTPPPISSYGEPCCLRPLPSQGAPSVGTEGLSGPPFCHQANLMSGPHSYGPARETNSCTEGPLFSSPRSAVKLTKKRALSISPMSDASLDLQTVIRTSPSSLVAFINSRCTSPGGSYGHLSIGTMSPSLGFPAQMNHQKGPSPSFGVQPCGPHDSARGGMIPHPQSRGPFPTCQLKSELDMLVGKCREEPLEGDMSSPNSTGIQDPLLGMLDGREDLEREEKREPESV | binds | 
8 | GLI1_(1-232) S89L (tumor-derived), 35S-radiolabeled (domain or fragment, UniProt P08151-1 1-232, [35S]-methionine label) MFNSMTPPPISSYGEPCCLRPLPSQGAPSVGTEGLSGPPFCHQANLMSGPHSYGPARETNSCTEGPLFSSPRSAVKLTKKRALSISPLLDASLDLQTVIRTSPSSLVAFINSRCTSPGGSYGHLSIGTMSPSLGFPAQMNHQKGPSPSFGVQPCGPHDSARGGMIPHPQSRGPFPTCQLKSELDMLVGKCREEPLEGDMSSPNSTGIQDPLLGMLDGREDLEREEKREPESV | binds | 
